Results are given in words; binding and its absence hold for the method and conditions named. Binding seen in cells or lysates may run through a third protein. Here binding means that the protein was enriched with, or labelled near, the bait; the list need not be complete.
Target: T1, RBM38 (endogenous) (human (endogenous; cell line of the IP not shown, all cell lines of the paper are human)) (UniProt Q9H0Z9)
T1 sequence: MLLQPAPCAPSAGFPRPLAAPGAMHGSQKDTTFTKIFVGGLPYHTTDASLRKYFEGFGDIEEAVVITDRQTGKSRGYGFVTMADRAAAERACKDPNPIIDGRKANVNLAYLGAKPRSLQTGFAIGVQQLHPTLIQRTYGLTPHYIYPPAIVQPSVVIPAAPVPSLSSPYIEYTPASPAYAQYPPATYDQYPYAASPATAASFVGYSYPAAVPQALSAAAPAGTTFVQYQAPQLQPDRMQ
Test: affinity purification with mass spectrometry; co-immunoprecipitation combined with mass spectrometry, RBM38 as bait

Protein sequences, listed by entry. Tags and fused reporters are not part of them.
UniProt O60573: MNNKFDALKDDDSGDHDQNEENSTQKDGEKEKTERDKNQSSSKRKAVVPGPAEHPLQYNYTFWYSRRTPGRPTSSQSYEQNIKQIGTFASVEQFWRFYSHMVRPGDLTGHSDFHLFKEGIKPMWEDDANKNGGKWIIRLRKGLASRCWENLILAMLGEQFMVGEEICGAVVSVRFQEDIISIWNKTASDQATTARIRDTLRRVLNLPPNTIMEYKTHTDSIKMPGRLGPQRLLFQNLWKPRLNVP

binding: binds
Substance: eIF4E2 (endogenous) (from UniProt O60573 1-245)

Source: paper PMC9107480
